According to patent US12084423B2, “Piperlongumine analogues and uses thereof” (BioVentures, LLC, priority 2018, dated 2024):

test system: IR-induced senescent cells (IR-SC WI-38); assay: Cell viability of IR-induced senescent WI-38 cells after 72 hours of compound treatment; format: cell-based; conditions: SI not defined; values match EC50 normal WI-38 / EC50 IR-SC WI-38
Procedure: Normal WI-38 cells and IR-induced senescent cells were incubated with increasing concentrations of compounds of Formula (I). At 72 hours post-treatment cell viability was measured and ED50was calculated. Table 1 depicts the ED50 values of the compounds of Formula (I) against normal and IR-induced senescent cells.

Structure (SMILES) | SI
COc1ccc(/C=C/C(=O)N2CCC=C(Br)C2=O)cc1 [No 9] | 1.7
O=C1C(Cl)=CCCN1S(=O)(=O)/C=C/c1ccccc1 [No 15] | 9.4
COc1cc(/C=C/C(=O)N2CCC=C(Cl)C2=O)cc(OC)c1OC [No 2] | 8.2
COc1cc(/C=C/C(=O)N2CCC=C(I)C2=O)cc(OC)c1OC [No 4] | 8.0
C=CC(=O)N1OCC=CC1=O [No 12] | 2.9
COc1cc(/C=C/C(=O)N2CCCC=C(Br)C2=O)cc(OC)c1OC [No 6] | 6.4
O=C1C(Br)=CCCCN1C(=O)c1cc2ccccc2oc1=O [No 14] | 1.3
COc1ccc(/C=C/C(=O)N2CCC=C(Cl)C2=O)cc1 [No 8] | 0.7
COc1cc(/C=C/C(=O)N2OCC=CC2=O)cc(OC)c1OC [No 7] | 6.0
COc1ccc(/C=C/C(=O)N2CCCC=C(Cl)C2=O)cc1 [No 10] | 9.4
COc1ccc(/C=C/C(=O)N2CCCC=C(Br)C2=O)cc1 [No 11] | 4.5
COc1cc(/C=C/C(=O)N2CCC=C(Br)C2=O)cc(OC)c1OC [No 3] | 10.4
COc1cc(/C=C/C(=O)N2CCCC=C(Cl)C2=O)cc(OC)c1OC [No 5] | 3.8
O=C1C(Br)=CCCN1S(=O)(=O)/C=C/c1ccccc1 [No 16] | 10
COc1cc(/C=C/C(=O)N2CCC=C(F)C2=O)cc(OC)c1OC [No 1] | 0.8
O=C1C(Br)=CCCN1C(=O)c1cc2ccccc2oc1=O [No 13] | 3.6
